PubChem BioAssay AID1224830 | NIAID | 2016
Shown is one part, drawn at random, of about 18,000 deposited reagents. In the full data, about 2,900 (16%) were called active. 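Calls are made per well; low scores hint the gene aids the LPS response, high scores that it dampens it.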 Reagents against one gene are numbered here. Repeated entries: four replicate wells of each siRNA pool.

Test: 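Genes whose knock-down alters the TNF-alpha reporter response to LPS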 (primary screen)
System: human THP-1 monocytic leukaemia cells, TNF dual-luciferase reporter clone, PMA-differentiated to macrophage-like cells
Knock-down reagent: siRNA pool against human genes, 50 nM
Timing: LPS for 4 h, given about 3 days after siRNA transfection
Conditions: bacterial LPS (TLR4 ligand), 10 ng/ml
Measurement: 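TNF firefly reporter luminescence divided by renilla, normalised to the plate median, then turned into a robust z-score for each replicate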
Scale: TNF reporter robust z-score: higher = stronger TNF reporter response to LPS
Call rule: 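a well is active when its z-score exceeds 2.8 or falls below -1.5; control wells carry no call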

target gene,reagent,TNF reporter robust z-score,Call
HIP1,1,0.66,inactive
HIP1,1,-0.55,inactive
HIP1,1,-0.44,inactive
OSBPL6,1,0.53,inactive
OSBPL6,1,1.07,inactive
OSBPL6,1,0.99,inactive
OSBPL6,1,1.7,inactive
MRC1,1,-0.37,inactive
MRC1,1,1.62,inactive
MRC1,1,1.07,inactive
MRC1,1,0.61,inactive
MRC1,2,2.56,inactive
MRC1,2,4.57,active
MRC1,2,3.96,active
MRC1,2,1.57,inactive
EFL1,1,-0.03,inactive
EFL1,1,-0.49,inactive
EFL1,1,4.62,active
EFL1,1,-0.3,inactive
TMEM150A,1,1.1,inactive
TMEM150A,1,1.45,inactive
TMEM150A,1,0.66,inactive
TMEM150A,1,-0.45,inactive
UQCRB,1,0.24,inactive
UQCRB,1,-0.37,inactive
UQCRB,1,-0.06,inactive
UQCRB,1,-0.78,inactive

The list goes on (3 carried over from the part before).
target gene,reagent,TNF reporter robust z-score,Call
UQCRB,1,-0.37,inactive
UQCRB,1,-0.06,inactive
UQCRB,1,-0.78,inactive
STRBP,1,0.01,inactive
STRBP,1,-0.94,inactive
STRBP,1,-0.48,inactive
STRBP,1,-0.13,inactive
RFX6,1,0.35,inactive
RFX6,1,0.94,inactive
RFX6,1,0.83,inactive
RFX6,1,0.6,inactive
DNAAF11,1,-0.26,inactive
DNAAF11,1,0.28,inactive
DNAAF11,1,0.09,inactive
DNAAF11,1,2.04,inactive
MTR,1,-0.58,inactive
MTR,1,-0.54,inactive
MTR,1,-0.37,inactive
MTR,1,-0.7,inactive
B4GALT3,1,,inactive
B4GALT3,1,-0.07,inactive
B4GALT3,1,-0.48,inactive
B4GALT3,1,-1.04,inactive
B4GALT3,1,-0.16,inactive
FILIP1L,1,3.66,active
FILIP1L,1,2.77,inactive
FILIP1L,1,2.2,inactive
FILIP1L,1,3.23,active
CC2D2A,1,-0.11,inactive
CC2D2A,1,0.81,inactive
CC2D2A,1,0.89,inactive
CC2D2A,1,-0.27,inactive
HNRNPR,1,1.23,inactive
HNRNPR,1,0.32,inactive
HNRNPR,1,0.17,inactive
HNRNPR,1,1.28,inactive
DROSHA,1,-1.29,inactive
DROSHA,1,-0.1,inactive
DROSHA,1,-0.16,inactive
DROSHA,1,-0.71,inactive
GPR180,1,-0.54,inactive
GPR180,1,0.4,inactive
GPR180,1,0.48,inactive
GPR180,1,0.6,inactive
DAAM1,1,0.82,inactive
DAAM1,1,2.55,inactive
DAAM1,1,1.51,inactive
DAAM1,1,2.69,inactive
WNK3,1,-1.47,inactive
WNK3,1,-1.62,active
WNK3,1,-1.71,active
WNK3,1,-1.2,inactive
